{"source": "PubChem BioAssay AID1224827 | NIAID, 2016", "test": "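Confirm genes whose knock-down changes LPS-driven TNF promoter activity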 (follow-up of hits)", "cell system": "RAW264.7 G9 mouse macrophage reporter clone", "reagent": "single siRNA against mouse genes, 100 nM siRNA", "timing": "siRNA for 2 days, then LPS about 16 h", "treatment": "bacterial lipopolysaccharide (LPS), 10 ng/ml, cells fixed after overnight (about 16 h) stimulation", "read-out": "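TNF promoter reporter red fluorescence in nuclei, background subtracted, normalised per plate and to non-targeting control siRNA, as z-scores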", "scale": "TNF reporter z-score, mean: higher = stronger Tnf promoter reporter signal; gene median z, three same-vendor siRNAs: higher = stronger Tnf reporter signal for the gene", "call rule": "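Active siRNA: replicate-mean z-score of 2 or more, or -2 or less; no calls for control wells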", "note": "In all, the deposit lists about 3,800 reagents; below is a random part of them. About 2,200 of all reagents (57%) were called active. 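Active means a strong reporter change in either direction; calls are per siRNA, not per gene; qiagen siRNAs gave weaker effects.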 A number with no mark means an inactive call. The numbers tell different reagents against one gene apart. Not all columns of the deposit are shown."}
{"gene symbol": "Sh2d2a (SH2 domain containing 2A)", "reagent no.": 1, "TNF reporter z-score, mean": -1.17, "gene median z, three same-vendor siRNAs": -3.25}
{"gene symbol": "Sh2d2a (SH2 domain containing 2A)", "reagent no.": 2, "TNF reporter z-score, mean": "-3.25 (active)", "gene median z, three same-vendor siRNAs": -3.25}
{"gene symbol": "Sh2d2a (SH2 domain containing 2A)", "reagent no.": 3, "TNF reporter z-score, mean": "-4.71 (active)", "gene median z, three same-vendor siRNAs": -3.25}
{"gene symbol": "Sh2d2a (SH2 domain containing 2A)", "reagent no.": 4, "TNF reporter z-score, mean": 1.57, "gene median z, three same-vendor siRNAs": -0.19}
{"gene symbol": "Sh2d2a (SH2 domain containing 2A)", "reagent no.": 5, "TNF reporter z-score, mean": 0.991, "gene median z, three same-vendor siRNAs": -0.19}
{"gene symbol": "Sh2d2a (SH2 domain containing 2A)", "reagent no.": 6, "TNF reporter z-score, mean": -0.863, "gene median z, three same-vendor siRNAs": -0.19}
{"gene symbol": "Pura (purine rich element binding protein A)", "reagent no.": 1, "TNF reporter z-score, mean": "-3.06 (active)", "gene median z, three same-vendor siRNAs": -4.83}
{"gene symbol": "Pura (purine rich element binding protein A)", "reagent no.": 2, "TNF reporter z-score, mean": "-4.99 (active)", "gene median z, three same-vendor siRNAs": -4.83}
{"gene symbol": "Pura (purine rich element binding protein A)", "reagent no.": 3, "TNF reporter z-score, mean": "-5.1 (active)", "gene median z, three same-vendor siRNAs": -4.83}
{"gene symbol": "Pura (purine rich element binding protein A)", "reagent no.": 4, "TNF reporter z-score, mean": 1.7, "gene median z, three same-vendor siRNAs": -1.5}
{"gene symbol": "Pura (purine rich element binding protein A)", "reagent no.": 5, "TNF reporter z-score, mean": "-2.2 (active)", "gene median z, three same-vendor siRNAs": -1.5}
{"gene symbol": "Pura (purine rich element binding protein A)", "reagent no.": 6, "TNF reporter z-score, mean": "-2.31 (active)", "gene median z, three same-vendor siRNAs": -1.5}
{"gene symbol": "Taar5 (trace amine-associated receptor 5)", "reagent no.": 1, "TNF reporter z-score, mean": 0.173, "gene median z, three same-vendor siRNAs": -1.94}
{"gene symbol": "Taar5 (trace amine-associated receptor 5)", "reagent no.": 2, "TNF reporter z-score, mean": -1.75, "gene median z, three same-vendor siRNAs": -1.94}
{"gene symbol": "Taar5 (trace amine-associated receptor 5)", "reagent no.": 3, "TNF reporter z-score, mean": "-4.95 (active)", "gene median z, three same-vendor siRNAs": -1.94}
{"gene symbol": "Taar5 (trace amine-associated receptor 5)", "reagent no.": 4, "TNF reporter z-score, mean": -1.21, "gene median z, three same-vendor siRNAs": -2.4}
{"gene symbol": "Taar5 (trace amine-associated receptor 5)", "reagent no.": 5, "TNF reporter z-score, mean": "-2.4 (active)", "gene median z, three same-vendor siRNAs": -2.4}
{"gene symbol": "Taar5 (trace amine-associated receptor 5)", "reagent no.": 6, "TNF reporter z-score, mean": "-4.04 (active)", "gene median z, three same-vendor siRNAs": -2.4}
{"gene symbol": "Krt71 (keratin 71)", "reagent no.": 1, "TNF reporter z-score, mean": "-4.95 (active)", "gene median z, three same-vendor siRNAs": -6.18}
{"gene symbol": "Krt71 (keratin 71)", "reagent no.": 2, "TNF reporter z-score, mean": "-6.18 (active)", "gene median z, three same-vendor siRNAs": -6.18}
{"gene symbol": "Krt71 (keratin 71)", "reagent no.": 3, "TNF reporter z-score, mean": "-7.23 (active)", "gene median z, three same-vendor siRNAs": -6.18}
{"gene symbol": "Krt71 (keratin 71)", "reagent no.": 4, "TNF reporter z-score, mean": 0.801, "gene median z, three same-vendor siRNAs": -0.435}
{"gene symbol": "Krt71 (keratin 71)", "reagent no.": 5, "TNF reporter z-score, mean": 0.0447, "gene median z, three same-vendor siRNAs": -0.435}
{"gene symbol": "Krt71 (keratin 71)", "reagent no.": 6, "TNF reporter z-score, mean": "-2.2 (active)", "gene median z, three same-vendor siRNAs": -0.435}
{"gene symbol": "Supt5 (suppressor of Ty 5, DSIF elongation factor subunit)", "reagent no.": 1, "TNF reporter z-score, mean": "-2.67 (active)", "gene median z, three same-vendor siRNAs": -4.61}
{"gene symbol": "Supt5 (suppressor of Ty 5, DSIF elongation factor subunit)", "reagent no.": 2, "TNF reporter z-score, mean": "-4.61 (active)", "gene median z, three same-vendor siRNAs": -4.61}
{"gene symbol": "Supt5 (suppressor of Ty 5, DSIF elongation factor subunit)", "reagent no.": 3, "TNF reporter z-score, mean": "-4.77 (active)", "gene median z, three same-vendor siRNAs": -4.61}
{"gene symbol": "Supt5 (suppressor of Ty 5, DSIF elongation factor subunit)", "reagent no.": 4, "TNF reporter z-score, mean": "-2.76 (active)", "gene median z, three same-vendor siRNAs": -3.29}
{"gene symbol": "Supt5 (suppressor of Ty 5, DSIF elongation factor subunit)", "reagent no.": 5, "TNF reporter z-score, mean": "-2.87 (active)", "gene median z, three same-vendor siRNAs": -3.29}
{"gene symbol": "Supt5 (suppressor of Ty 5, DSIF elongation factor subunit)", "reagent no.": 6, "TNF reporter z-score, mean": "-3.82 (active)", "gene median z, three same-vendor siRNAs": -3.29}
{"gene symbol": "Fam89b (family with sequence similarity 89, member B)", "reagent no.": 1, "TNF reporter z-score, mean": -1.32, "gene median z, three same-vendor siRNAs": -2.66}
{"gene symbol": "Fam89b (family with sequence similarity 89, member B)", "reagent no.": 2, "TNF reporter z-score, mean": "-2.59 (active)", "gene median z, three same-vendor siRNAs": -2.66}
{"gene symbol": "Fam89b (family with sequence similarity 89, member B)", "reagent no.": 3, "TNF reporter z-score, mean": "-4.96 (active)", "gene median z, three same-vendor siRNAs": -2.66}
{"gene symbol": "Fam89b (family with sequence similarity 89, member B)", "reagent no.": 4, "TNF reporter z-score, mean": "7.88 (active)", "gene median z, three same-vendor siRNAs": 2.4}
{"gene symbol": "Fam89b (family with sequence similarity 89, member B)", "reagent no.": 5, "TNF reporter z-score, mean": 1.82, "gene median z, three same-vendor siRNAs": 2.4}
{"gene symbol": "Fam89b (family with sequence similarity 89, member B)", "reagent no.": 6, "TNF reporter z-score, mean": 0.53, "gene median z, three same-vendor siRNAs": 2.4}

6 entries from above, ordered by “gene median z, three same-vendor siRNAs”, descending.
{"gene symbol": "Sh2d2a (SH2 domain containing 2A)", "reagent no.": 5, "TNF reporter z-score, mean": 0.991, "gene median z, three same-vendor siRNAs": -0.19}
{"gene symbol": "Sh2d2a (SH2 domain containing 2A)", "reagent no.": 6, "TNF reporter z-score, mean": -0.863, "gene median z, three same-vendor siRNAs": -0.19}
{"gene symbol": "Pura (purine rich element binding protein A)", "reagent no.": 4, "TNF reporter z-score, mean": 1.7, "gene median z, three same-vendor siRNAs": -1.5}
{"gene symbol": "Pura (purine rich element binding protein A)", "reagent no.": 1, "TNF reporter z-score, mean": "-3.06 (active)", "gene median z, three same-vendor siRNAs": -4.83}
{"gene symbol": "Pura (purine rich element binding protein A)", "reagent no.": 2, "TNF reporter z-score, mean": "-4.99 (active)", "gene median z, three same-vendor siRNAs": -4.83}
{"gene symbol": "Pura (purine rich element binding protein A)", "reagent no.": 3, "TNF reporter z-score, mean": "-5.1 (active)", "gene median z, three same-vendor siRNAs": -4.83}
